# In the supplement of paper PMC8728848:
# The other results are listed elsewhere or left out.
# Columns and labels:
# Assay in all cases: glycan array binding signal (z-score within array); higher = stronger binding
# Conditions in all cases: glycan notation: IUPAC condensed, linker removed
# Man(b1-4)GlcNAc = test system: Man(b1-4)GlcNAc
# Procedure, shortened: (§1)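 The binding signal is a Z-score computed within each array and averaged over linkers. Arrays of the same protein sequence at different concentrations or buffers were also averaged together. Data originate from 3228 arrays in the Consortium for Functional Glycomics database, kept only where the protein sequence was available.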
# [1] = test system: Neu5Ac(a2-3)Gal(b1-3)GalNAc(b1-3)Gal(a1-4)Gal(b1-4)Glc
# Procedure, shortened: as §1
# [2] = test system: Neu5Ac(a2-3)Gal(b1-3)GalNAc(b1-4)[Neu5Ac(a2-3)]Gal(b1-4)Glc
# Procedure, shortened: as §1
# [3] = test system: Neu5Ac(a2-3)Gal(b1-3)GalNAc(b1-4)[Neu5Ac(a2-8)Neu5Ac(a2-3)]Gal(b1-4)Glc
# Procedure, shortened: as §1
# [4] = test system: Neu5Ac(a2-3)Gal(b1-3)GalNAc6S
# Procedure, shortened: as §1
# [5] = test system: Neu5Ac(a2-3)Gal(b1-3)GalNAc
# Procedure, shortened: as §1
# [6] = test system: Neu5Ac(a2-3)Gal(b1-3)GlcNAc(b1-2)Man(a1-3)[GlcNAc(b1-4)][Neu5Ac(a2-3)Gal(b1-3)GlcNAc(b1-2)Man(a1-6)]Man(b1-4)GlcNAc(b1-4)GlcNAc
# Procedure, shortened: as §1
# [7] = test system: Neu5Ac(a2-3)Gal(b1-3)GlcNAc(b1-3)Gal(b1-3)GlcNAc
# Procedure, shortened: as §1
# [8] = test system: Neu5Ac(a2-3)Gal(b1-3)GlcNAc(b1-3)Gal(b1-4)GlcNAc
# Procedure, shortened: as §1
# [9] = test system: Neu5Ac(a2-3)Gal(b1-3)GlcNAc(b1-3)GalNAc
# Procedure, shortened: as §1
# [10] = test system: Neu5Ac(a2-3)Gal(b1-3)GlcNAc(b1-6)GalNAc
# Procedure, shortened: as §1
# [11] = test system: Neu5Ac(a2-3)Gal(b1-3)GlcNAc6S
# Procedure, shortened: as §1
# [12] = test system: Neu5Ac(a2-3)Gal(b1-3)GlcNAc
# Procedure, shortened: as §1
# [13] = test system: Neu5Ac(a2-3)Gal(b1-3)[Fuc(a1-4)]GlcNAc(b1-3)Gal(b1-3)[Fuc(a1-4)]GlcNAc
# Procedure, shortened: as §1
# [14] = test system: Neu5Ac(a2-3)Gal(b1-3)[Fuc(a1-4)]GlcNAc(b1-3)Gal(b1-4)[Fuc(a1-3)]GlcNAc
# Procedure, shortened: as §1
# [15] = test system: Neu5Ac(a2-3)Gal(b1-3)[Fuc(a1-4)]GlcNAc
# Procedure, shortened: as §1
# [16] = test system: Neu5Ac(a2-3)Gal(b1-3)[Neu5Ac(a2-3)Gal(b1-4)]GlcNAc
# Procedure, shortened: as §1
# [17] = test system: Neu5Ac(a2-3)Gal(b1-3)[Neu5Ac(a2-6)]GalNAc
# Procedure, shortened: as §1
# [18] = test system: Neu5Ac(a2-3)Gal(b1-3)[Neu5Ac(a2-6)]GlcNAc(b1-3)[Fuc(a1-3)[Gal(b1-4)]GlcNAc(b1-6)]Gal(b1-4)Glc
# Procedure, shortened: as §1
# [19] = test system: Neu5Ac(a2-3)Gal(b1-4)GlcNAc(b1-2)Man(a1-3)[GlcNAc(b1-2)Man(b1-4)GlcNAc(b1-2)Man(a1-6)]Man(b1-4)GlcNAc(b1-4)GlcNAc
# Procedure, shortened: as §1
# [20] = test system: Neu5Ac(a2-3)Gal(b1-4)GlcNAc(b1-2)Man(a1-3)[Neu5Ac(a2-3)Gal(b1-4)GlcNAc(b1-2)Man(a1-6)]Man(b1-4)GlcNAc(b1-4)[Fuc(a1-6)]GlcNAc
# Procedure, shortened: as §1
# [21] = test system: Neu5Ac(a2-3)Gal(b1-4)GlcNAc(b1-2)Man(a1-3)[Neu5Ac(a2-6)Gal(b1-4)GlcNAc(b1-2)Man(a1-6)]Man(b1-4)GlcNAc(b1-4)GlcNAc
# Procedure, shortened: as §1
# [22] = test system: Neu5Ac(a2-3)Gal(b1-4)GlcNAc(b1-2)Man
# Procedure, shortened: as §1
# [23] = test system: Neu5Ac(a2-3)Gal(b1-4)GlcNAc(b1-2)[Neu5Ac(a2-3)Gal(b1-4)GlcNAc(b1-6)]Man(a1-6)[Neu5Ac(a2-3)Gal(b1-4)GlcNAc(b1-2)Man(a1-3)]Man(b1-4)GlcNAc(b1-4)GlcNAc
# Procedure, shortened: as §1
# [24] = test system: Neu5Ac(a2-3)Gal(b1-4)GlcNAc(b1-3)Gal(b1-3)GlcNAc
# Procedure, shortened: as §1
# [25] = test system: Neu5Ac(a2-3)Gal(b1-4)GlcNAc(b1-3)Gal(b1-4)GlcNAc(b1-3)Gal(b1-4)GlcNAc
# Procedure, shortened: as §1
# [26] = test system: Neu5Ac(a2-3)Gal(b1-4)GlcNAc(b1-3)Gal(b1-4)GlcNAc
# Procedure, shortened: as §1
# [27] = test system: Neu5Ac(a2-3)Gal(b1-4)GlcNAc(b1-3)Gal(b1-4)[Fuc(a1-3)]GlcNAc
# Procedure, shortened: as §1
# [28] = test system: Neu5Ac(a2-3)Gal(b1-4)GlcNAc(b1-3)GalNAc
# Procedure, shortened: as §1
# [29] = test system: Neu5Ac(a2-3)Gal(b1-4)GlcNAc(b1-3)Gal
# Procedure, shortened: as §1
# [30] = test system: Neu5Ac(a2-3)Gal(b1-4)GlcNAc(b1-3)[Neu5Ac(a2-3)Gal(b1-4)GlcNAc(b1-6)]GalNAc
# Procedure, shortened: as §1
# [31] = test system: Neu5Ac(a2-3)Gal(b1-4)GlcNAc(b1-6)GalNAc
# Procedure, shortened: as §1
# [32] = test system: Neu5Ac(a2-3)Gal(b1-4)GlcNAc(b1-6)[Gal(b1-3)]GalNAc
# Procedure, shortened: as §1
# [33] = test system: Neu5Ac(a2-3)Gal(b1-4)GlcNAc(b1-6)[Neu5Ac(a2-3)Gal(b1-3)]GalNAc
# Procedure, shortened: as §1
# [34] = test system: Neu5Ac(a2-3)Gal(b1-4)GlcNAc6S
# Procedure, shortened: as §1
# [35] = test system: Neu5Ac(a2-3)Gal(b1-4)GlcNAc
# Procedure, shortened: as §1
# Neu5Ac(a2-3)Gal(b1-4)Glc = test system: Neu5Ac(a2-3)Gal(b1-4)Glc
# Procedure, shortened: as §1
# [36] = test system: Neu5Ac(a2-3)Gal(b1-4)[Fuc(a1-3)]GlcNAc(b1-3)Gal(b1-4)GlcNAc
# Procedure, shortened: as §1
# [37] = test system: Neu5Ac(a2-3)Gal(b1-4)[Fuc(a1-3)]GlcNAc(b1-3)Gal(b1-4)[Fuc(a1-3)]GlcNAc(b1-3)Gal(b1-4)[Fuc(a1-3)]GlcNAc
# Procedure, shortened: as §1
# [38] = test system: Neu5Ac(a2-3)Gal(b1-4)[Fuc(a1-3)]GlcNAc(b1-3)GalNAc
# Procedure, shortened: as §1
# [39] = test system: Neu5Ac(a2-3)Gal(b1-4)[Fuc(a1-3)]GlcNAc(b1-3)Gal
# Procedure, shortened: as §1
# [40] = test system: Neu5Ac(a2-3)Gal(b1-4)[Fuc(a1-3)]GlcNAc(b1-6)[Gal(b1-3)]GalNAc
# Procedure, shortened: as §1
# [41] = test system: Neu5Ac(a2-3)Gal(b1-4)[Fuc(a1-3)]GlcNAc6S
# Procedure, shortened: as §1
# [42] = test system: Neu5Ac(a2-3)Gal(b1-4)[Fuc(a1-3)]GlcNAc
# Procedure, shortened: as §1
# [43] = test system: Neu5Ac(a2-3)Gal6S(b1-4)GlcNAc
# Procedure, shortened: as §1
# [44] = test system: Neu5Ac(a2-3)Gal6S(b1-4)[Fuc(a1-3)]GlcNAc
# Procedure, shortened: as §1
# [45] = test system: Neu5Ac(a2-3)GalNAc(b1-4)GlcNAc
# Procedure, shortened: as §1
# Neu5Ac(a2-3)GalNAc = test system: Neu5Ac(a2-3)GalNAc
# Procedure, shortened: as §1
# Neu5Ac(a2-3)Gal = test system: Neu5Ac(a2-3)Gal
# Procedure, shortened: as §1
# [46] = test system: Neu5Ac(a2-3)[GalNAc(b1-4)]Gal(b1-4)GlcNAc(b1-3)GalNAc
# Procedure, shortened: as §1
# [47] = test system: Neu5Ac(a2-3)[GalNAc(b1-4)]Gal(b1-4)GlcNAc
# Procedure, shortened: as §1
# [48] = test system: Neu5Ac(a2-3)[GalNAc(b1-4)]Gal(b1-4)Glc
# Procedure, shortened: as §1
substance,measurement,setting,value
"Wza (Escherichia coli), P0A930",glycan array binding signal (z-score),Man(b1-4)GlcNAc,-0.686
same,glycan array binding signal (z-score),[1],1.07
same,glycan array binding signal (z-score),[2],-0.692
same,glycan array binding signal (z-score),[3],0.61
same,glycan array binding signal (z-score),[4],-0.69
same,glycan array binding signal (z-score),[5],0.257
same,glycan array binding signal (z-score),[6],-1.23
same,glycan array binding signal (z-score),[7],0.621
same,glycan array binding signal (z-score),[8],-0.033
same,glycan array binding signal (z-score),[9],-0.192
same,glycan array binding signal (z-score),[10],1.38
same,glycan array binding signal (z-score),[11],-1.5
same,glycan array binding signal (z-score),[12],-0.762
same,glycan array binding signal (z-score),[13],-0.85
same,glycan array binding signal (z-score),[14],1.94
same,glycan array binding signal (z-score),[15],0.702
same,glycan array binding signal (z-score),[16],0.434
same,glycan array binding signal (z-score),[17],-0.38
same,glycan array binding signal (z-score),[18],0.175
same,glycan array binding signal (z-score),[19],-0.441
same,glycan array binding signal (z-score),[20],0.091
same,glycan array binding signal (z-score),[21],-1.27
same,glycan array binding signal (z-score),[22],0.842
same,glycan array binding signal (z-score),[23],-0.47
same,glycan array binding signal (z-score),[24],-0.926
same,glycan array binding signal (z-score),[25],-0.493
same,glycan array binding signal (z-score),[26],-1.45
same,glycan array binding signal (z-score),[27],0.953
same,glycan array binding signal (z-score),[28],2.43
same,glycan array binding signal (z-score),[29],2.81
same,glycan array binding signal (z-score),[30],2.11
same,glycan array binding signal (z-score),[31],-0.404
same,glycan array binding signal (z-score),[32],0.334
same,glycan array binding signal (z-score),[33],1.46
same,glycan array binding signal (z-score),[34],0.428
same,glycan array binding signal (z-score),[35],-1.27
same,glycan array binding signal (z-score),Neu5Ac(a2-3)Gal(b1-4)Glc,-0.735
same,glycan array binding signal (z-score),[36],0.406
same,glycan array binding signal (z-score),[37],0.171
same,glycan array binding signal (z-score),[38],1.12
same,glycan array binding signal (z-score),[39],-0.736
same,glycan array binding signal (z-score),[40],1.6
same,glycan array binding signal (z-score),[41],-0.433
same,glycan array binding signal (z-score),[42],-0.446
same,glycan array binding signal (z-score),[43],-0.975
same,glycan array binding signal (z-score),[44],-0.127
same,glycan array binding signal (z-score),[45],-0.131
same,glycan array binding signal (z-score),Neu5Ac(a2-3)GalNAc,-0.035
same,glycan array binding signal (z-score),Neu5Ac(a2-3)Gal,-0.725
same,glycan array binding signal (z-score),[46],-0.181
same,glycan array binding signal (z-score),[47],0.075
same,glycan array binding signal (z-score),[48],-1.26

# As a working copy, part of the list above:
substance,measurement,setting,value
"Wza (Escherichia coli), P0A930",glycan array binding signal (z-score),[20],0.091
same,glycan array binding signal (z-score),[21],-1.27
same,glycan array binding signal (z-score),[22],0.842
same,glycan array binding signal (z-score),[23],-0.47
